Like-named read-outs stand apart in the source and are kept apart here. Results are given in words; binding and its absence hold for the method and conditions named. In cells and extracts the contact can be indirect. Here binding means that the protein was enriched with, or labelled near, the bait; the list need not be complete. Where a sequence is shown, tags or fusion partners need not be part of it.

Sequences of proteins named here, by UniProt entry; tags and fusion partners are left off.
UniProt P39926: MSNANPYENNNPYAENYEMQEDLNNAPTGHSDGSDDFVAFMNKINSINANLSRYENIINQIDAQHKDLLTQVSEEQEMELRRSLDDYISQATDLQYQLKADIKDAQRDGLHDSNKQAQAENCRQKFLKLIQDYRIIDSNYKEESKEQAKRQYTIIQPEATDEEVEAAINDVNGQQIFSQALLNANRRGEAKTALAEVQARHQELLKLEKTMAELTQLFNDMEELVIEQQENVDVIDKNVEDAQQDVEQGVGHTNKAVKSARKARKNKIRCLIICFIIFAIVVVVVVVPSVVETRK
UniProt P23291: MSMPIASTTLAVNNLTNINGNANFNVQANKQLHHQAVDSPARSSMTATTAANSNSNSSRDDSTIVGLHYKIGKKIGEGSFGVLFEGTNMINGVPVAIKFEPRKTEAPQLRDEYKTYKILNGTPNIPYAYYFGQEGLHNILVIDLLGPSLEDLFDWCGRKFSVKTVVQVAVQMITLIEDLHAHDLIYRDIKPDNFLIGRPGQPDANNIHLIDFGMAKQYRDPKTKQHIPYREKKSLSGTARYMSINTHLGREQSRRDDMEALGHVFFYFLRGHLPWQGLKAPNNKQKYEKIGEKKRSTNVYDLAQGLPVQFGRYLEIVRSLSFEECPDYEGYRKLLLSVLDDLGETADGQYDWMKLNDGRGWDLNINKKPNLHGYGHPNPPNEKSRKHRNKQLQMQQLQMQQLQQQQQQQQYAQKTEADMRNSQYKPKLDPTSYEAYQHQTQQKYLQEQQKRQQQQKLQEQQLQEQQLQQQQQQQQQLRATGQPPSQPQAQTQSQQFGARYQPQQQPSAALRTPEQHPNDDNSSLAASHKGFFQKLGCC

What all share (test): affinity purification with mass spectrometry; immunoprecipitation (IP-MS) of GFP-tagged bait with anti-GFP microbeads from yeast lysate cross-linked with 1 mM DSP, 1% digitonin, on-bead digestion; BY4741 as control
The target in assay [1] is T1, Mid2-GFP (S. cerevisiae) (UniProt P36027).
T1 sequence: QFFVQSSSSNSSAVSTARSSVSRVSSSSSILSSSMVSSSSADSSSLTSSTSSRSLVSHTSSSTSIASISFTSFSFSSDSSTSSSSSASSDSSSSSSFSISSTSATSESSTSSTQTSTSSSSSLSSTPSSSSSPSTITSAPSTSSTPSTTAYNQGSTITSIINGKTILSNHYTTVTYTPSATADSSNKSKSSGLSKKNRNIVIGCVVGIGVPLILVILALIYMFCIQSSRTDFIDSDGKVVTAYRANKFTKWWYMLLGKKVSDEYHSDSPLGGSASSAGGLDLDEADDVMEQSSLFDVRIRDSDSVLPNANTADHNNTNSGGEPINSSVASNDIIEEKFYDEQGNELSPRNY

The target of assay [2] is T2, Wsc1-GFP (S. cerevisiae) (UniProt P54867).
T2 sequence: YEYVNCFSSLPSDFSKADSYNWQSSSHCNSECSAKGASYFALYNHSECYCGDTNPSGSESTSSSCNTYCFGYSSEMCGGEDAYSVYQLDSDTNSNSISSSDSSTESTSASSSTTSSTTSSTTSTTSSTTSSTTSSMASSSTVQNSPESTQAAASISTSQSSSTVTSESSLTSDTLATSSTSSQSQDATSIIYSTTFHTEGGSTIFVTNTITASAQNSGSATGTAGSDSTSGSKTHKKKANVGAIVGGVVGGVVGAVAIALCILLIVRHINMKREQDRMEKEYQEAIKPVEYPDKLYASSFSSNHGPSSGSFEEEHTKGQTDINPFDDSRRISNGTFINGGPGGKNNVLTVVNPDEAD

The target in assay [3] is T1, Mid2-GFP (S. cerevisiae). The source holds these as a separate data set.
Assay [4] concerns the target T2, Wsc1-GFP (S. cerevisiae). The source holds these as a separate data set.

On to “Sso2 (endogenous) (from UniProt P39926 1-295)”, for which the binding entry with Mid2-GFP (S. cerevisiae) [1] and with Wsc1-GFP (S. cerevisiae) [2] was “binds” each time. For the molecule “Yck1 (endogenous) (from UniProt P23291 1-538)”, the binding entry in the assay with Mid2-GFP (S. cerevisiae) [1] and with Wsc1-GFP (S. cerevisiae) [2] was “binds” in each case.

B1: Abp1 (endogenous) (protein, UniProt P15891 1-592)
chain: MALEPIDYTTHSREIDAEYLKIVRGSDPDTTWLIISPNAKKEYEPESTGSSFHDFLQLFDETKVQYGLARVSPPGSDVEKIIIIGWCPDSAPLKTRASFAANFAAVANNLFKGYHVQVTARDEDDLDENELLMKISNAAGARYSIQTSSKQQGKASTPPVKKSFTPSKSPAPVSKKEPVKTPSPAPAAKISSRVNDNNDDDDWNEPELKERDFDQAPLKPNQSSYKPIGKIDLQKVIAEEKAKEDPRLVQKPTAAGSKIDPSSDIANLKNESKLKRDSEFNSFLGTTKPPSMTESSLKNDDDKVIKGFRNEKSPAQLWAERKAKQNSGNAETKAEAPKPEVPEDEPEGEPDVKDLKSKFEGLAASEKEEEEMENKFAPPPKKSEPTIISPKPFSKPQEPVKAEEAEQPKTDYKKIGNPLPGMHIEADNEEEPEENDDDWDDDEDEAAQPPLPSRNVASGAPVQKEEPEQEEIAPSLPSRNSIPAPKQEEAPEQAPEEEIEEEAEEAAPQLPSRSSAAPPPPPRRATPEKKPKENPWATAEYDYDAAEDNELTFVENDKIINIEFVDDDWWLGELEKDGSKGLFPSNYVSLGN
As for B1, in the assay with Mid2-GFP (S. cerevisiae) [3], the binding result is “binds”.

B2: Crn1 (endogenous) (protein, UniProt Q06440 1-651)
chain: MSGKFVRASKYRHVFGQAAKKELQYEKLKVTNNAWDSNLLKTNGKFIAVNWNASGGGAFAVIPIEEVGKAPDQVPLFRGHTAQVLDTDFDPFNDHRIASGSDDSKIGIWDIPENYKFHDHVDEDGEPIDIKPVKFLTGHARKVGHVLYHPVAENVLASSSGDYTVKLWNVETGKDMITLKHPDMVTSMSFSYDGNYLATVARDKKLRVWNIREEKIVSEGPAHTGAKNQRVVWLGNSDRLATTGFSKLSDRQIGIWDAFNIEKGDLGGFYTVDQSSGILMPFYDEGNKILYLVGKGDGNIRYYEFQNDELFELSEFQSTEAQRGFAVAPKRMVNVKENEVLKGFKTVVDQRIEPVSFFVPRRSEEFQEDIYPDAPSNKPALTAEEWFSGKSVEGPILVSMRSIYDGSAPSFHEAKRPQQPTTQETALEEKKEQPKVEKPISESEKEVKQEAPKSPSPLKSASSSSTINHVLKEDNSINKLLKKSSDIDQVNNAEDPSRDTSGWEEADDEPAPIKIETPVTPTETKKDRTPKVEPSKELKPEPVSIATDRKQEQSLPQEEKSSEKTKSPEQEKSATPPSSITAAKTAITASSKEEPSAARTSPKSLGLKKSVEKLSTLVLQLEDVVDKLTKANLDKDERLLKLEQKIGELSK
Turning to B2, the binding result in the assay with Mid2-GFP (S. cerevisiae) [3] and with Wsc1-GFP (S. cerevisiae) [4] was “binds” each time.

B3: Ras2 (endogenous) (protein, UniProt P01120 1-322)
chain: MPLNKSNIREYKLVVVGGGGVGKSALTIQLTQSHFVDEYDPTIEDSYRKQVVIDDEVSILDILDTAGQEEYSAMREQYMRNGEGFLLVYSITSKSSLDELMTYYQQILRVKDTDYVPIVVVGNKSDLENEKQVSYQDGLNMAKQMNAPFLETSAKQAINVEEAFYTLARLVRDEGGKYNKTLTENDNSKQTSQDTKGSGANSVPRNSGGHRKMSNAANGKNVNSSTTVVNARNASIESKTGLAGNQATNGKTQTDRTNIDNSTGQAGQANAQSANTVNNRVNNNSKAGQVSNAKQARKQQAAPGGNTSEASKSGSGGCCIIS
In the case of B3, the binding result with Mid2-GFP (S. cerevisiae) [3] and with Wsc1-GFP (S. cerevisiae) [4] was “binds” in each case.

The record behind these values is PMC6469404.
